B1: GLT8D1 (protein, UniProt Q68CQ7 1-371, looked up)
Glycosyltransferase 8 …: MSFRKVNIIILVLAVALFLLVLHHNFLSLSSLLRNEVTDSGIVGPQPIDFVPNALRHAVDGRQEEIPVVIAASEDRLGGAIAAINSIQHNTRSNVIFYIVTLNNTADHLRSWLNSDSLKSIRYKIVNFDPKLLEGKVKEDPDQGESMKPLTFARFYLPILVPSAKKAIYMDDDVIVQGDILALYNTALKPGHAAAFSEDCDSASTKVVIRGAGNQYNYIGYLDYKKERIRKLSMKASTCSFNPGVFVANLTEWKRQNITNQLEKWMKLNVEEGLYSRTLAGSITTPPLLIVFYQQHSTIDPMWNVRHLGSSAGKRYSPQFVKAAKLLHWNGHLKPWGRTASYTDVWEKWYIPDPTGKFNLIRRYTEISNIK
B2: MTX3 (protein, UniProt Q5HYI7 1-312, looked up)
Metaxin-3: MAAPLELSCWGGGWGLPSVHSESLVVMAYAKFSGAPLKVNVIDNTWRGSRGDVPILTTEDDMVSQPAKILNFLRKQKYNADYELSAKQGADTLAYIALLEEKLLPAVLHTFWVESDNYFTVTKPWFASQIPFPLSLILPGRMSKGALNRILLTRGQPPLYHLREVEAQIYRDAKECLNLLSNRLGTSQFFFGDTPSTLDAYVFGFLAPLYKVRFPKVQLQEHLKQLSNLCRFCDDILSSYFRLSLGGISPAGQETVDANLQKLTQLVNKESNLIEKMDDNLRQSPQLPPRKLPTLKLTPAEEENNSFQRLSP
B3: ATL3 (protein, UniProt Q6DD88 1-541, looked up)
Atlastin-3: MLSPQRVAAAASRGADDAMESSKPGPVQVVLVQKDQHSFELDEKALASILLQDHIRDLDVVVVSVAGAFRKGKSFILDFMLRYLYSQKESGHSNWLGDPEEPLTGFSWRGGSDPETTGIQIWSEVFTVEKPGGKKVAVVLMDTQGAFDSQSTVKDCATIFALSTMTSSVQIYNLSQNIQEDDLQQLQLFTEYGRLAMDEIFQKPFQTLMFLVRDWSFPYEYSYGLQGGMAFLDKRLQVKEHQHEEIQNVRNHIHSCFSDVTCFLLPHPGLQVATSPDFDGKLKDIAGEFKEQLQALIPYVLNPSKLMEKEINGSKVTCRGLLEYFKAYIKIYQGEDLPHPKSMLQATAEANNLAAAASAKDIYYNNMEEVCGGEKPYLSPDILEEKHCEFKQLALDHFKKTKKMGGKDFSFRYQQELEEEIKELYENFCKHNGSKNVFSTFRTPAVLFTGIVALYIASGLTGFIGLEVVAQLFNCMVGLLLIALLTWGYIRYSGQYRELGGAIDFGAAYVLEQASSHIGNSTQATVRDAVVGRPSMDKKAQ
B4: AGPS (protein, UniProt O00116 59-658, looked up)
Alkyldihydroxyacetonephosphate …: KARRAASAATAAPTATPAAQESGTIPKKRQEVMKWNGWGYNDSKFIFNKKGQIELTGKRYPLSGMGLPTFKEWIQNTLGVNVEHKTTSKASLNPSDTPPSVVNEDFLHDLKETNISYSQEADDRVFRAHGHCLHEIFLLREGMFERIPDIVLWPTCHDDVVKIVNLACKYNLCIIPIGGGTSVSYGLMCPADETRTIISLDTSQMNRILWVDENNLTAHVEAGITGQELERQLKESGYCTGHEPDSLEFSTVGGWVSTRASGMKKNIYGNIEDLVVHIKMVTPRGIIEKSCQGPRMSTGPDIHHFIMGSEGTLGVITEATIKIRPVPEYQKYGSVAFPNFEQGVACLREIAKQRCAPASIRLMDNKQFQFGHALKPQVSSIFTSFLDGLKKFYITKFKGFDPNQLSVATLLFEGDREKVLQHEKQVYDIAAKFGGLAAGEDNGQRGYLLTYVIAYIRDLALEYYVLGESFETSAPWDRVVDLCRNVKERITRECKEKGVQFAPFSTCRVTQTYDAGACIYFYFAFNYRGISDPLTVFEQTEAAAREEILANGGSLSHHHGVGKLRKQWLKESISDVGFGMLKSVKEYVDPNNIFGNRNLL
B5: MTFP1 (protein, UniProt Q9UDX5 1-166, looked up)
Mitochondrial fission process …: MSEPQPRGAERDLYRDTWVRYLGYANEVGEAFRSLVPAAVVWLSYGVASSYVLADAIDKGKKAGEVPSPEAGRSARVTVAVVDTFVWQALASVAIPGFTINRVCAASLYVLGTATRWPLAVRKWTTTALGLLTIPIIIHPIDRSVDFLLDSSLRKLYPTVGKPSSS
B6: PYCR2 (protein, UniProt Q96C36 2-320, looked up)
Pyrroline-5-carboxylate …: SVGFIGAGQLAYALARGFTAAGILSAHKIIASSPEMNLPTVSALRKMGVNLTRSNKETVKHSDVLFLAVKPHIIPFILDEIGADVQARHIVVSCAAGVTISSVEKKLMAFQPAPKVIRCMTNTPVVVQEGATVYATGTHALVEDGQLLEQLMSSVGFCTEVEEDLIDAVTGLSGSGPAYAFMALDALADGGVKMGLPRRLAIQLGAQALLGAAKMLLDSEQHPCQLKDNVCSPGGATIHALHFLESGGFRSLLINAVEASCIRTRELQSMADQEKISPAALKKTLLDRVKLESPTVSTLTPSSPGKLLTRSLALGGKKD
B7: PC (protein, UniProt P11498 21-1178, looked up)
Pyruvate carboxylase, …: TAPAASPNVRRLEYKPIKKVMVANRGEIAIRVFRACTELGIRTVAIYSEQDTGQMHRQKADEAYLIGRGLAPVQAYLHIPDIIKVAKENNVDAVHPGYGFLSERADFAQACQDAGVRFIGPSPEVVRKMGDKVEARAIAIAAGVPVVPGTDAPITSLHEAHEFSNTYGFPIIFKAAYGGGGRGMRVVHSYEELEENYTRAYSEALAAFGNGALFVEKFIEKPRHIEVQILGDQYGNILHLYERDCSIQRRHQKVVEIAPAAHLDPQLRTRLTSDSVKLAKQVGYENAGTVEFLVDRHGKHYFIEVNSRLQVEHTVTEEITDVDLVHAQIHVAEGRSLPDLGLRQENIRINGCAIQCRVTTEDPARSFQPDTGRIEVFRSGEGMGIRLDNASAFQGAVISPHYDSLLVKVIAHGKDHPTAATKMSRALAEFRVRGVKTNIAFLQNVLNNQQFLAGTVDTQFIDENPELFQLRPAQNRAQKLLHYLGHVMVNGPTTPIPVKASPSPTDPVVPAVPIGPPPAGFRDILLREGPEGFARAVRNHPGLLLMDTTFRDAHQSLLATRVRTHDLKKIAPYVAHNFSKLFSMENWGGATFDVAMRFLYECPWRRLQELRELIPNIPFQMLLRGANAVGYTNYPDNVVFKFCEVAKENGMDVFRVFDSLNYLPNMLLGMEAAGSAGGVVEAAISYTGDVADPSRTKYSLQYYMGLAEELVRAGTHILCIKDMAGLLKPTACTMLVSSLRDRFPDLPLHIHTHDTSGAGVAAMLACAQAGADVVDVAADSMSGMTSQPSMGALVACTRGTPLDTEVPMERVFDYSEYWEGARGLYAAFDCTATMKSGNSDVYENEIPGGQYTNLHFQAHSMGLGSKFKEVKKAYVEANQMLGDLIKVTPSSKIVGDLAQFMVQNGLSRAEAEAQAEELSFPRSVVEFLQGYIGVPHGGFPEPFRSKVLKDLPRVEGRPGASLPPLDLQALEKELVDRHGEEVTPEDVLSAAMYPDVFAHFKDFTATFGPLDSLNTRLFLQGPKIAEEFEVELERGKTLHIKALAVSDLNRAGQRQVFFELNGQLRSILVKDTQAMKEMHFHPKALKDVKGQIGAPMPGKVIDIKVVAGAKVAKGQPLCVLSAMKMETVVTSPMEGTVRKVHVTKDMTLEGDDLILEIE
B8: IPO5 (protein, UniProt O00410 2-1097, looked up)
Importin-5: AAAAAEQQQFYLLLGNLLSPDNVVRKQAEETYENIPGQSKITFLLQAIRNTTAAEEARQMAAVLLRRLLSSAFDEVYPALPSDVQTAIKSELLMIIQMETQSSMRKKVCDIAAELARNLIDEDGNNQWPEGLKFLFDSVSSQNVGLREAALHIFWNFPGIFGNQQQHYLDVIKRMLVQCMQDQEHPSIRTLSARATAAFILANEHNVALFKHFADLLPGFLQAVNDSCYQNDDSVLKSLVEIADTVPKYLRPHLEATLQLSLKLCGDTSLNNMQRQLALEVIVTLSETAAAMLRKHTNIVAQTIPQMLAMMVDLEEDEDWANADELEDDDFDSNAVAGESALDRMACGLGGKLVLPMIKEHIMQMLQNPDWKYRHAGLMALSAIGEGCHQQMEGILNEIVNFVLLFLQDPHPRVRYAACNAVGQMATDFAPGFQKKFHEKVIAALLQTMEDQGNQRVQAHAAAALINFTEDCPKSLLIPYLDNLVKHLHSIMVLKLQELIQKGTKLVLEQVVTSIASVADTAEEKFVPYYDLFMPSLKHIVENAVQKELRLLRGKTIECISLIGLAVGKEKFMQDASDVMQLLLKTQTDFNDMEDDDPQISYMISAWARMCKILGKEFQQYLPVVMGPLMKTASIKPEVALLDTQDMENMSDDDGWEFVNLGDQQSFGIKTAGLEEKSTACQMLVCYAKELKEGFVEYTEQVVKLMVPLLKFYFHDGVRVAAAESMPLLLECARVRGPEYLTQMWHFMCDALIKAIGTEPDSDVLSEIMHSFAKCIEVMGDGCLNNEHFEELGGILKAKLEEHFKNQELRQVKRQDEDYDEQVEESLQDEDDNDVYILTKVSDILHSIFSSYKEKVLPWFEQLLPLIVNLICPHRPWPDRQWGLCIFDDVIEHCSPASFKYAEYFLRPMLQYVCDNSPEVRQAAAYGLGVMAQYGGDNYRPFCTEALPLLVRVIQSADSKTKENVNATENCISAVGKIMKFKPDCVNVEEVLPHWLSWLPLHEDKEEAVQTFNYLCDLIESNHPIVLGPNNTNLPKIFSIIAEGEMHEAIKHEDPCAKRLANVVRQVQTSGGLWTECIAQLSPEQQAAIQELLNSA

The molecules below were run on BAF complex subunits and histone proteins (assay: Mass spectrometry proteomics of purified HA-SS18 WT and HA-SS18-SSX1 complexes (Tables 5A-5E)). Conditions: HA-SS18SSX1_NE_peptides: protein co-purified with HA-SS18-SSX1 BAF complexes from soluble nuclear extract (NE), HEK-293T cells.
Set-up: species or system human
For B1, the “Total (peptides)” value was 2 and the “Unique (peptides)” value was 2.
With B2 the “Total (peptides)” value was 2 and the “Unique (peptides)” value was 2.
B3 was tested, and the “Total (peptides)” value was 2 and the “Unique (peptides)” value was 2.
For B4, the “Total (peptides)” value was 2 and the “Unique (peptides)” value was 2.
With B5 the “Total (peptides)” value was 2 and the “Unique (peptides)” value was 2.
With B6 the “Total (peptides)” value was 2 and the “Unique (peptides)” value was 2.
In the case of B7, the “Total (peptides)” value is reported as 2 and the “Unique (peptides)” value is reported as 2.
With B8 the “Total (peptides)” value was 2 and the “Unique (peptides)” value was 2.

Same assay, conditions: HA-SS18WT_CHR_peptides: HA-SS18 WT purification from nuclease-treated solubilized chromatin (CHR), HEK-293T; label = protein identified
With B7 the “Total (peptides)” value was 4 and the “Unique (peptides)” value was 4.

Same assay, conditions: HA-SS18WT_NE_peptides: HA-SS18 WT complexes purified from nuclear extract (NE), HEK-293T; label = protein identified (Gene Symbol)
For B1, the “Total (peptides)” value was 3 and the “Unique (peptides)” value was 3.
B3 was tested, and the “Total (peptides)” value was 2 and the “Unique (peptides)” value was 2.
For B6, the “Total (peptides)” value was 2 and the “Unique (peptides)” value was 2.

Same assay, conditions: HA-SS18WT_NE_peptides: proteins co-purified with HA-SS18 WT from nuclear extract (NE), HEK-293T
In the case of B2, the “Total (peptides)” value is reported as 1 and the “Unique (peptides)” value is reported as 1.
In the case of B5, the “Total (peptides)” value is reported as 2 and the “Unique (peptides)” value is reported as 2.

— US20250283871A1, “COMPOSITIONS AND METHODS FOR MODULATING THE INTERACTION BETWEEN SS18-SSX FUSION ONCOPROTEIN AND NUCLEOSOMES” (Dana-Farber Cancer Institute, Inc., priority 2020, published 2025)
